# Laboratory results taken from patent publication US10525115B2 (Immatics Biotechnologies GmbH, priority 2014, dated 2020).
# B1: GANAB glucosidase, alpha; neutral AB: HLA class II ligandome-derived tumor-associated antigen (LiTAA), source protein of the peptides listed under it (protein, UniProt Q14697 29-944, looked up)
# Neutral alpha-glucosidase AB: ITLAVDRSNFKTCEESSFCKRQRSIRPGLSPYRALLDSLQLGPDSLTVHLIHEVTKVLLVLELQGLQKNMTRFRIDELEPRRPRYRVPDVLVADPPIARLSVSGRDENSVELTMAEGPYKIILTARPFRLDLLEDRSLLLSVNARGLLEFEHQRAPRVSQGSKDPAEGDGAQPEETPRDGDKPEETQGKAEKDEPGAWEETFKTHSDSKPYGPMSVGLDFSLPGMEHVYGIPEHADNLRLKVTEGGEPYRLYNLDVFQYELYNPMALYGSVPVLLAHNPHRDLGIFWLNAAETWVDISSNTAGKTLFGKMMDYLQGSGETPQTDVRWMSETGIIDVFLLLGPSISDVFRQYASLTGTQALPPLFSLGYHQSRWNYRDEADVLEVDQGFDDHNLPCDVIWLDIEHADGKRYFTWDPSRFPQPRTMLERLASKRRKLVAIVDPHIKVDSGYRVHEELRNLGLYVKTRDGSDYEGWCWPGSAGYPDFTNPTMRAWWANMFSYDNYEGSAPNLFVWNDMNEPSVFNGPEVTMLKDAQHYGGWEHRDVHNIYGLYVHMATADGLRQRSGGMERPFVLARAFFAGSQRFGAVWTGDNTAEWDHLKISIPMCLSLGLVGLSFCGADVGGFFKNPEPELLVRWYQMGAYQPFFRAHAHLDTGRREPWLLPSQHNDIIRDALGQRYSLLPFWYTLLYQAHREGIPVMRPLWVQYPQDVTTFNIDDQYLLGDALLVHPVSDSGAHGVQVYLPGQGEVWYDIQSYQKHHGPQTLYLPVTLSSIPVFQRGGTIVPRWMRVRRSSECMKDDPITLFVALSPQGTAQGELFLDDGHTFNYQTRQEFLLRRFSFSGNTLVSSSADPEGHFETPIWIERVVIIGAGKPAAVVLQTKGSPESRLSFQHDPETSVLVLRKPGINVASDWSIHLR
# B2: PBX2 pre-B-cell leukemia homeobox 2: HLA class II ligandome-derived tumor-associated antigen (LiTAA), source protein of the peptides listed under it (protein, UniProt P40425 1-430, looked up)
# Pre-B-cell leukemia …: MDERLLGPPPPGGGRGGLGLVSGEPGGPGEPPGGGDPGGGSGGVPGGRGKQDIGDILQQIMTITDQSLDEAQAKKHALNCHRMKPALFSVLCEIKEKTGLSIRSSQEEEPVDPQLMRLDNMLLAEGVAGPEKGGGSAAAAAAAAASGGGVSPDNSIEHSDYRSKLAQIRHIYHSELEKYEQACNEFTTHVMNLLREQSRTRPVAPKEMERMVSIIHRKFSAIQMQLKQSTCEAVMILRSRFLDARRKRRNFSKQATEVLNEYFYSHLSNPYPSEEAKEELAKKCGITVSQVSNWFGNKRIRYKKNIGKFQEEANIYAVKTAVSVTQGGHSRTSSPTPPSSAGSGGSFNLSGSGDMFLGMPGLNGDSYSASQVESLRHSMGPGGYGDNLGGGQMYSPREMRANGSWQEAVTPSSVTSPTEGPGSVHSDTSN
# B3: RBMX RNA binding motif protein, X-linked: HLA class II ligandome-derived tumor-associated antigen (LiTAA), source protein of the peptides listed under it (protein, UniProt P38159 1-391, looked up)
# RNA-binding motif protein, X …: MVEADRPGKLFIGGLNTETNEKALEAVFGKYGRIVEVLLMKDRETNKSRGFAFVTFESPADAKDAARDMNGKSLDGKAIKVEQATKPSFESGRRGPPPPPRSRGPPRGLRGGRGGSGGTRGPPSRGGHMDDGGYSMNFNMSSSRGPLPVKRGPPPRSGGPPPKRSAPSGPVRSSSGMGGRAPVSRGRDSYGGPPRREPLPSRRDVYLSPRDDGYSTKDSYSSRDYPSSRDTRDYAPPPRDYTYRDYGHSSSRDDYPSRGYSDRDGYGRDRDYSDHPSGGSYRDSYESYGNSRSAPPTRGPPPSYGGSSRYDDYSSSRDGYGGSRDSYSSSRSDLYSSGRDRVGRQERGLPPSMERGYPPPRDSYSSSSRGAPRGGGRGGSRSDRGGGRSRY
# Test system: primary AML samples
# Experiment: HLA class II ligandome analysis (LC-MS/MS) of primary AML samples
# Design: species or system human
# Settings: HLA class II ligandome, AML patients n=12
row,Molecule,Number of positive AMLs
1,B1,3
2,B2,3
3,B3,3

# Same assay, conditions: source protein level, HLA class II, AML patients n=12
row,Molecule,rep. frequency in AMLs [%]
1,B1,25.0
2,B2,25.0
3,B3,25.0
